Binding signal data for 42 sequences are collected here from paper PMC7819943, “Rice protein-binding microarrays: a tool to detect cis-acting elements near promoter regions in rice”.

The other results are listed elsewhere or left out.

This assay addresses T1, OsSMF1 (Oryza sativa, UniProt Q6ZLB0 1-436).
T1 sequence: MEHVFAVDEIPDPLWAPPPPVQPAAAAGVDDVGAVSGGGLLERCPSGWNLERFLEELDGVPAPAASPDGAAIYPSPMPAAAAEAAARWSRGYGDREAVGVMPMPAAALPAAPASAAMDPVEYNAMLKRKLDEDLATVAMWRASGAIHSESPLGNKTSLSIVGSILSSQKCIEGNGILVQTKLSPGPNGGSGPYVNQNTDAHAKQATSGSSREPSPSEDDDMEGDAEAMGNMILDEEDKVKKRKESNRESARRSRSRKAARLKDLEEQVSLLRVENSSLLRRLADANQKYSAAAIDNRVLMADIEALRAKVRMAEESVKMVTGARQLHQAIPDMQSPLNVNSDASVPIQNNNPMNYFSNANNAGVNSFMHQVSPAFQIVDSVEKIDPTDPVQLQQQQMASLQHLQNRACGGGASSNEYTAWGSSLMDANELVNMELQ
Briefly: protein-binding microarray (RPBM); PBS, 2% BSA, 51.3 ng/ul salmon testes DNA, 50 uM zinc acetate, 200 nM TF, 25 C, 1 h; high values mean tight binding. The settings on record: protein: recombinant; tags: N-terminal polyhistidine and DsRed monomer fusion (pET32a); chain copies: 2; label: CyDye5-dUTP incorporated in the synthesized complementary strand; 3' TTTTT single-stranded linker to array surface; dsDNA, one strand shown. The method, boiled down:
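Using Ni–NTA, transcription factors fused N-terminally to polyhistidine and DsRed were purified after expression in E. coli BL21-CodonPlus. These were incubated at 200 nM with a blocked, double-stranded custom Agilent array for 1 h at 25 °C in a buffer containing 50 µM zinc acetate, and the array was washed. The binding signal is per-feature fluorescence intensity (arbitrary units) on an Axon 4000B scanner.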
Take “CTTAGATACCTTGTGGTTTATATCATGCACCGGCACTGGCCGGAGTCACCTAGTGCAG”: the binding signal was 3620 fluorescence intensity (a.u.).

“ACTACTCTCGTACTGTACTACTGTGGCGTGGCTATCTACTCGGAGTCACCTAGTGCAG”: the binding signal is 4920 fluorescence intensity (a.u.).

Consider “GTTTCCTTTTAGTCAACTATATGTAGGCATGATGATTCATCGGAGTCACCTAGTGCAG”, for which the binding signal was 3640 fluorescence intensity (a.u.).

Turning to “ATCCCTTTTGTGTAGTAATTGTCTAGTTCACATCGTGTCACGGAGTCACCTAGTGCAG”, the binding signal was 3680 fluorescence intensity (a.u.).

Turning to “ATTAAACCTGAACCTTGTACCTGTACTGTGCCCTTCTATACGGAGTCACCTAGTGCAG”, the binding signal was 3400 fluorescence intensity (a.u.).

With “TCTCCCGTGGTTTCCGCGGTGGGCTACGTCCACTGTGGCGCGGAGTCACCTAGTGCAG”, the binding signal was 3890 fluorescence intensity (a.u.).

“TTAGCCGATTGATCAGGTCAATGAGCCACGTCAGCGAAAACGGAGTCACCTAGTGCAG”: the binding signal is 21900 fluorescence intensity (a.u.).

As for “GCAGTGTCTGTGTTTGGCACGTCCACGACAGCACGAGACGCGGAGTCACCTAGTGCAG”, the binding signal was 37100 fluorescence intensity (a.u.).

Regarding “CCACCTAACACTAATCAACCAGTCAACCACCACATCTTCCCGGAGTCACCTAGTGCAG”, the binding signal was 3820 fluorescence intensity (a.u.).

For “TGGAAGCCTCGTGAATATATAAAGCCCACGTGTCCACGGCCGGAGTCACCTAGTGCAG”, the binding signal was 11500 fluorescence intensity (a.u.).

Regarding “GTAGTACGACACGTACACCTGTTGGATTGTTCTTCTGTCTCGGAGTCACCTAGTGCAG”, the binding signal is 7370 fluorescence intensity (a.u.).

Consider “TTGTATAACTATGTGTATATGTGTATGGTTATTAAGCAAACGGAGTCACCTAGTGCAG”, for which the binding signal is 10500 fluorescence intensity (a.u.).

With “TCCTCCCGCACCTCGGCGTACCTCACCCGCCTCCGGACGACGGAGTCACCTAGTGCAG”, the binding signal was 3430 fluorescence intensity (a.u.).

On to “TATTTTCAAATTAATTGAAAGGAGGGAGGCAAAGTGGACTCGGAGTCACCTAGTGCAG”, for which the binding signal is 26100 fluorescence intensity (a.u.).

With “AAGCTCCCCGGCCAGGCCGCCATCGGCCACGTGAGGTACTCGGAGTCACCTAGTGCAG”, the binding signal was 4540 fluorescence intensity (a.u.).

As to “AAAGGCTACGTCCTCAGGGAAGGATACATTCTTACCTAGCCGGAGTCACCTAGTGCAG”, the binding signal is 3600 fluorescence intensity (a.u.).

On to “ATTTGCATCAACAAATTTGCTTCGAACATTCTCCCTGATACGGAGTCACCTAGTGCAG”, for which the binding signal was 15900 fluorescence intensity (a.u.).

With “AGTCAGAGACAATGATGTCTTGCTGACATATGGGTCATCGCGGAGTCACCTAGTGCAG”, the binding signal was 3310 fluorescence intensity (a.u.).

Regarding “CTCAGAATGCACACAACGGAACGAAGCAGTCACGCTCGTGCGGAGTCACCTAGTGCAG”, the binding signal is 3560 fluorescence intensity (a.u.).

As to “AAGTCCGATTCGTGAGTCACAGATGTTGACTCGCCGAAAACGGAGTCACCTAGTGCAG”, the binding signal is 5350 fluorescence intensity (a.u.).

For “AAGGTTAGTGATTAGCAATAGTGTACTCCGCCTCGTCACACGGAGTCACCTAGTGCAG”, the binding signal was 3420 fluorescence intensity (a.u.).

In the case of “CTTTGTTATTTTGAGTTCGGTCGCTGTAACGCAGGCTGTGCGGAGTCACCTAGTGCAG”, the binding signal is 9280 fluorescence intensity (a.u.).

Take “AGAACACGTGTGTGCTCCTCTTTTATCTCCTTGGGCCTTTCGGAGTCACCTAGTGCAG”: the binding signal is 4830 fluorescence intensity (a.u.).

Consider “CAAAGCGATCGAGGACGGCCAGATCATCACTCAACTTAGCCGGAGTCACCTAGTGCAG”, for which the binding signal is 5890 fluorescence intensity (a.u.).

On to “CTCCTCCACGTGACCCGCGCCACCACCACCACCACCACCGCGGAGTCACCTAGTGCAG”, for which the binding signal was 3540 fluorescence intensity (a.u.).

Regarding “CTGGGTTTTATCATATCTGACCGTATGAGTAGTTGGCATTCGGAGTCACCTAGTGCAG”, the binding signal is 4220 fluorescence intensity (a.u.).

On to “TGCCGTCGCTGCCGCCGCAGCCCGTCCAGCGCACCGGGTACGGAGTCACCTAGTGCAG”, for which the binding signal was 31500 fluorescence intensity (a.u.).

Turning to “GCTGTTTTGCTCCCTGCACATTAGCTGTCCATTGGCAGCGCGGAGTCACCTAGTGCAG”, the binding signal was 3180 fluorescence intensity (a.u.).

For “TAGGTAGCATTTTCTGTAGTTGCAGCTCAAGTAAGGTAATCGGAGTCACCTAGTGCAG”, the binding signal is 3520 fluorescence intensity (a.u.).

“TATTAAGGTCCAGTAGAAAGCACGTGTCTTGCTTACGAGACGGAGTCACCTAGTGCAG”: the binding signal is 3410 fluorescence intensity (a.u.).

In the case of “CACCGATGATGGCCGGTCGACTAGTTTGATTCGTTCCGATCGGAGTCACCTAGTGCAG”, the binding signal is 3350 fluorescence intensity (a.u.).

Regarding “AATTCAGAATGTGTCATGCTCATCTTCAGAAATGATTCATCGGAGTCACCTAGTGCAG”, the binding signal is 5970 fluorescence intensity (a.u.).

Consider “GTGACATATAAATAAGACATCACAATAGAAACTACACTTCCGGAGTCACCTAGTGCAG”, for which the binding signal is 3420 fluorescence intensity (a.u.).

Consider “TACAGTTCTACTACTGCTATACCACTGATGAATCATCTCACGGAGTCACCTAGTGCAG”, for which the binding signal was 4460 fluorescence intensity (a.u.).

For “TGGCTCTCTTATCTCTTCATCTATTTTCATTCCACGTAAGCGGAGTCACCTAGTGCAG”, the binding signal is 6510 fluorescence intensity (a.u.).

Turning to “TAGGAGTAAAGAAAATCCCTGTTTAATTAACGCCAAACTTCGGAGTCACCTAGTGCAG”, the binding signal is 24400 fluorescence intensity (a.u.).

Take “GCAGGGCAACGCAGCATGATTGATTTCGTCATTCTCCTCTCGGAGTCACCTAGTGCAG”: the binding signal is 4060 fluorescence intensity (a.u.).

“AATTCTAAGAAATTTCATATAGGATTTATGGATAGCTATTCGGAGTCACCTAGTGCAG”: the binding signal was 20200 fluorescence intensity (a.u.).

“AAATTGCTTTTCATTTCACTTCACAATGGGCACGTACGCCCGGAGTCACCTAGTGCAG”: the binding signal was 4280 fluorescence intensity (a.u.).

“ACGGCTGCCACGTTGGACCCGCGCGGGCCACTCACCCGCTCGGAGTCACCTAGTGCAG”: the binding signal was 12500 fluorescence intensity (a.u.).

In the case of “ACACTATGATTATAATATATTTACATGTGTGAATTGTTTACGGAGTCACCTAGTGCAG”, the binding signal was 3640 fluorescence intensity (a.u.).

For “GCTCCCGCACCGCATCCGCCAACGAGGAGGCCGGGACTGTCGGAGTCACCTAGTGCAG”, the binding signal was 3150 fluorescence intensity (a.u.).
